Paper doi:10.1101/2020.08.14.246132
These are yes or no findings as the source states them, for the method shown. For some assays here: Binding seen in cells or lysates may run through a third protein. Some results given as binding are weak or reduced against the parent protein; the word gives no strength. Sequences can lack the tags named with a protein. Each block holds one binder with its values, some of them ahead of it.

Key:
[1] = target: T1, FLAG-tagged full-length NLRP1 S1213A (autoproteolysis-deficient) (human) (UniProt Q9C000); assay: co-IP
T1 sequence: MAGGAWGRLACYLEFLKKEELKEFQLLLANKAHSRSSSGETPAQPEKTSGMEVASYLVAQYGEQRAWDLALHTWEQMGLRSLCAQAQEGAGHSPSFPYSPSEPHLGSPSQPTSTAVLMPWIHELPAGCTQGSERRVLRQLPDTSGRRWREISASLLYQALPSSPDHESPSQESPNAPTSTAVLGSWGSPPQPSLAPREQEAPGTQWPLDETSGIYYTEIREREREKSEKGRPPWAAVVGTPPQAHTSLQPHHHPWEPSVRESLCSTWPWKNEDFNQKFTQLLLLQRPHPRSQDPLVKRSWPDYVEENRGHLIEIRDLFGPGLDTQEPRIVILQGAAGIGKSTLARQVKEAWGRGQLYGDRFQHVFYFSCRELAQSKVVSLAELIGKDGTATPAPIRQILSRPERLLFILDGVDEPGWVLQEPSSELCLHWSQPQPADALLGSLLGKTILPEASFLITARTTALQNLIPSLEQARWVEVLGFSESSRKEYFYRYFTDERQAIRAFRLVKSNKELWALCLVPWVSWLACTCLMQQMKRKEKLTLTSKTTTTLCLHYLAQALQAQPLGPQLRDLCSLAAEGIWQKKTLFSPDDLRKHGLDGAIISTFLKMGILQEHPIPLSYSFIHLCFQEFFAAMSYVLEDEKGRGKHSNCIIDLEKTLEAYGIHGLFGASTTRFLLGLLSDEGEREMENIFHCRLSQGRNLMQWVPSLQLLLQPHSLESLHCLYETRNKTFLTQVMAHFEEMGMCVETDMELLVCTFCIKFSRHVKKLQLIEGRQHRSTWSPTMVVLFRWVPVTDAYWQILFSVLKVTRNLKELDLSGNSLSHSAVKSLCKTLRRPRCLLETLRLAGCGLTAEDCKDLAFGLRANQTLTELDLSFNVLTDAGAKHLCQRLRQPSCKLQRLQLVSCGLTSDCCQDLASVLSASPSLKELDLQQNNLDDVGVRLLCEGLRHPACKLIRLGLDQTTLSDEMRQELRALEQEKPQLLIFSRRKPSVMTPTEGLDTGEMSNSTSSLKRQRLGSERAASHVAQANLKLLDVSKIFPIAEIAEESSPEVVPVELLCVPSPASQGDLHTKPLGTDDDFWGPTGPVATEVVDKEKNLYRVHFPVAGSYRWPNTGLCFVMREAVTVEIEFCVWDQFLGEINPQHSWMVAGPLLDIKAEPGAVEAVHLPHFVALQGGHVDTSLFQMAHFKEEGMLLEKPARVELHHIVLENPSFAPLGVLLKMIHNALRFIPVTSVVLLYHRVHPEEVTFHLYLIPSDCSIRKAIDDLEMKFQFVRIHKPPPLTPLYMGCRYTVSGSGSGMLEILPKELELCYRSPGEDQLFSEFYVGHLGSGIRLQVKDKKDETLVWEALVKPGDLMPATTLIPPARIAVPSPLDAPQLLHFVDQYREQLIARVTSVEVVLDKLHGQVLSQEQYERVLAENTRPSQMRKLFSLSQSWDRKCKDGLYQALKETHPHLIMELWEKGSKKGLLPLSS

[2] = target: DPP9, short isoform (His-TEV-DPP9), co-expressed with NLRP1ΔΔ for cryo-EM (human), Q86TI2; assay: cryo-EM structure; settings: remark: other sources report otherwise

- binding [1]: binds
B1: NLRP1-CT (S1213-S1473) expressed as an N-terminal ubiquitin fusion (Ub-NLRP1-CT), V5-tagged (domain or fragment, UniProt Q9C000-1 1213-1473)
chain: SPLGVLLKMIHNALRFIPVTSVVLLYHRVHPEEVTFHLYLIPSDCSIRKAIDDLEMKFQFVRIHKPPPLTPLYMGCRYTVSGSGSGMLEILPKELELCYRSPGEDQLFSEFYVGHLGSGIRLQVKDKKDETLVWEALVKPGDLMPATTLIPPARIAVPSPLDAPQLLHFVDQYREQLIARVTSVEVVLDKLHGQVLSQEQYERVLAENTRPSQMRKLFSLSQSWDRKCKDGLYQALKETHPHLIMELWEKGSKKGLLPLSS

- binding [2]: binds
B2: DPP9, short isoform (His-TEV-DPP9), co-expressed with NLRP1ΔΔ for cryo-EM, Q86TI2-1 1-863 (enzyme)
chain: MATTGTPTADRGDAAATDDPAARFQVQKHSWDGLRSIIHGSRKYSGLIVNKAPHDFQFVQKTDESGPHSHRLYYLGMPYGSRENSLLYSEIPKKVRKEALLLLSWKQMLDHFQATPHHGVYSREEELLRERKRLGVFGITSYDFHSESGLFLFQASNSLFHCRDGGKNGFMVSPMKPLEIKTQCSGPRMDPKICPADPAFFSFINNSDLWVANIETGEERRLTFCHQGLSNVLDDPKSAGVATFVIQEEFDRFTGYWWCPTASWEGSEGLKTLRILYEEVDESEVEVIHVPSPALEERKTDSYRYPRTGSKNPKIALKLAEFQTDSQGKIVSTQEKELVQPFSSLFPKVEYIARAGWTRDGKYAWAMFLDRPQQWLQLVLLPPALFIPSTENEEQRLASARAVPRNVQPYVVYEEVTNVWINVHDIFYPFPQSEGEDELCFLRANECKTGFCHLYKVTAVLKSQGYDWSEPFSPGEDEFKCPIKEEIALTSGEWEVLARHGSKIWVNEETKLVYFQGTKDTPLEHHLYVVSYEAAGEIVRLTTPGFSHSCSMSQNFDMFVSHYSSVSTPPCVHVYKLSGPDDDPLHKQPRFWASMMEAASCPPDYVPPEIFHFHTRSDVRLYGMIYKPHALQPGKKHPTVLFVYGGPQVQLVNNSFKGIKYLRLNTLASLGYAVVVIDGRGSCQRGLRFEGALKNQMGQVEIEDQVEGLQFVAEKYGFIDLSRVAIHGWSYGGFLSLMGLIHKPQVFKVAIAGAPVTVWMAYDTGYTERYMDVPENNQHGYEAGSVALHVEKLPNEPNRLLILHGFLDENVHFFHTNFLVSQLIRAGKPYQLQIYPNERHSIRCPESGEHYEVTLLHFLQEYL
